The text below walks through data of PMC6783548.

Amino acid sequences for entries named in this document (tags omitted). Residues count along the entry.
UniProt P41738, residues 10-853: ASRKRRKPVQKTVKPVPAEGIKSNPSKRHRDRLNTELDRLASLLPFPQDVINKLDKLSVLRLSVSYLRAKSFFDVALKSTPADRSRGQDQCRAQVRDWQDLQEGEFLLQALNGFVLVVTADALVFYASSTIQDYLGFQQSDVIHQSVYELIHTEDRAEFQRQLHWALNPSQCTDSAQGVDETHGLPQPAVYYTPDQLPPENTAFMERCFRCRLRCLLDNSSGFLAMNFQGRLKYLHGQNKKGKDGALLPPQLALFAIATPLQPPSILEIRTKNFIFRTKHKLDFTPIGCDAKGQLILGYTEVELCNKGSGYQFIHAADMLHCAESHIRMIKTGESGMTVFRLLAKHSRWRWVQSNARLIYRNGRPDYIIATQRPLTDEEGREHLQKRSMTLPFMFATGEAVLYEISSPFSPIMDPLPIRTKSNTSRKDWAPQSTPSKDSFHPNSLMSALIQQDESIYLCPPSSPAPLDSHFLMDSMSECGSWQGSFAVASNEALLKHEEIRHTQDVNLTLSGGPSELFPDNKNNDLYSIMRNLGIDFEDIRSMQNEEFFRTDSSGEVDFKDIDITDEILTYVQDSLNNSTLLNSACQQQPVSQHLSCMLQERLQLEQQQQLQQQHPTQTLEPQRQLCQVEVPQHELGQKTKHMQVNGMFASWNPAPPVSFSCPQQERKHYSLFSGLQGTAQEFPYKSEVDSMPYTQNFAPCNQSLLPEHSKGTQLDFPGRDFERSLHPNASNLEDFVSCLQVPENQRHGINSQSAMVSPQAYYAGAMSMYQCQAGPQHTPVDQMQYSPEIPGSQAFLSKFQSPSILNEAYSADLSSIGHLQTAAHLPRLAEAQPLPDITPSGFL
UniProt P35869, residues 11-848: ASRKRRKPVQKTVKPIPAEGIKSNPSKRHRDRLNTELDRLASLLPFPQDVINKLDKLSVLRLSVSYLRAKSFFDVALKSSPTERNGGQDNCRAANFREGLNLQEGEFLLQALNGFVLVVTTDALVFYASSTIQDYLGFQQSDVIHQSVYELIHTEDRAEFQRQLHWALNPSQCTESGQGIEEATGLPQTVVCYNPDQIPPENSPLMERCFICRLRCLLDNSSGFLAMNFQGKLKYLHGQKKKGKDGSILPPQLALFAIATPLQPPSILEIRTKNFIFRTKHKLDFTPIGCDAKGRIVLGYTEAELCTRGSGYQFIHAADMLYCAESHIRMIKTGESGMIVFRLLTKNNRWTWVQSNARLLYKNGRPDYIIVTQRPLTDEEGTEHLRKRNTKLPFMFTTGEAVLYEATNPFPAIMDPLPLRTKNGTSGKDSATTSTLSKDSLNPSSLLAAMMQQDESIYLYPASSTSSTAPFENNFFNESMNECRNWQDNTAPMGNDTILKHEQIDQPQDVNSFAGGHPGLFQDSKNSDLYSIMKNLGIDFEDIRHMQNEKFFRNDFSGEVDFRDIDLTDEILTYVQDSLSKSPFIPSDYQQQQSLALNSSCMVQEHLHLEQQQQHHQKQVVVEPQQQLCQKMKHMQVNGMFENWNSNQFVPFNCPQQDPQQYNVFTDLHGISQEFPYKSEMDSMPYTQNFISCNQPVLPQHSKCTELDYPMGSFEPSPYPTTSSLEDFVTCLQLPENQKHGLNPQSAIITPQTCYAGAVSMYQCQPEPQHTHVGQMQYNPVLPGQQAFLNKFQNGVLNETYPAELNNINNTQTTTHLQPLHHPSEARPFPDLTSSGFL
UniProt P41739: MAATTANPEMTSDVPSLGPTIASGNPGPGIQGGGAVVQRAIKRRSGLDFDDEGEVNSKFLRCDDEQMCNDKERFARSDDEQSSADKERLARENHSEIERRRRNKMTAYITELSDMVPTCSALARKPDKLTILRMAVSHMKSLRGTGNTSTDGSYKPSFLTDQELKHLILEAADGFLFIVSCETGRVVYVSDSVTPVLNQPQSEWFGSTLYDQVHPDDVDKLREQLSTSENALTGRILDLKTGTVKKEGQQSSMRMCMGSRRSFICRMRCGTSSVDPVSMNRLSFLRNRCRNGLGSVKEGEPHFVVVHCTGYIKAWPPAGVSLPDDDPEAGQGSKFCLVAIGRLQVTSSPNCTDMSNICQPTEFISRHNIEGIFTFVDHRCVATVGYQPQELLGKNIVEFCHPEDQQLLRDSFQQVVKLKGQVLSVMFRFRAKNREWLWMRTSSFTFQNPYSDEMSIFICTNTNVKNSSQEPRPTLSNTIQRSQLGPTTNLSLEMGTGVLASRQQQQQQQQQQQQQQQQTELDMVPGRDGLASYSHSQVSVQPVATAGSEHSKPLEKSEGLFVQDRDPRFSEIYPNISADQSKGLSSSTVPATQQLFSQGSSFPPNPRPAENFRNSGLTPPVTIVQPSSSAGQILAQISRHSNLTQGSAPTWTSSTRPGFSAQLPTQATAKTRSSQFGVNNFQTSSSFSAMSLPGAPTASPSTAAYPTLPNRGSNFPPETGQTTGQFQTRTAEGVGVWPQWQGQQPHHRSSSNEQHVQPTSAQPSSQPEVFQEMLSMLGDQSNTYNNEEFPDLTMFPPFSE
UniProt P27540: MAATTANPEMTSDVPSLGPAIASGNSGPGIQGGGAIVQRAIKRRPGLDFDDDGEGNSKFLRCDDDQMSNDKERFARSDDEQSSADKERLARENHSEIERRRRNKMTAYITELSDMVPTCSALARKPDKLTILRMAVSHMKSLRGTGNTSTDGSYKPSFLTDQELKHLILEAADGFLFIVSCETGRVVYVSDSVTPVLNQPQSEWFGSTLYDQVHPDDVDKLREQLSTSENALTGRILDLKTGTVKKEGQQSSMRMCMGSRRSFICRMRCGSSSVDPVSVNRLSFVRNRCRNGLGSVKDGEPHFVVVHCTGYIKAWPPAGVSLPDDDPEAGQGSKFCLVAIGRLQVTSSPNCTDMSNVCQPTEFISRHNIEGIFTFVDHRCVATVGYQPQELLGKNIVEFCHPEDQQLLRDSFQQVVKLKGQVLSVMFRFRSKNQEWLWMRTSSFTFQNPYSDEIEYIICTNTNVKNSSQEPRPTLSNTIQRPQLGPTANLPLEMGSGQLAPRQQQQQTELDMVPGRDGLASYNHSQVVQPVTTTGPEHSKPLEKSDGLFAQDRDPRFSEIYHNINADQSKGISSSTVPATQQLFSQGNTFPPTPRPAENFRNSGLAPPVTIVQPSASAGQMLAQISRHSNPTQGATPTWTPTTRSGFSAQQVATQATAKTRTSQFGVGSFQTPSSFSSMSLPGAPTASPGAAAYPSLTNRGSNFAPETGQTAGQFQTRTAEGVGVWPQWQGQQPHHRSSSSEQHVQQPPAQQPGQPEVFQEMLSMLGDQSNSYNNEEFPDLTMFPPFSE

Results are given in words; binding and its absence hold for the method and conditions named. In cells and extracts the contact can be indirect. Some binding calls cover weakened binding; strength is not graded here.

The target in experiment [1] is aryl hydrocarbon receptor (AHR), rat (rat (endogenous in hepatocytes of SD rats)) (UniProt P41738). In words: co-IP; endogenous proteins in hepatocytes from CRP^L CIA rats, Leflunomide-induced; method not named for this experiment (immunoprecipitation is the paper's only method for this read-out).
The target of experiment [2] is aryl hydrocarbon receptor (AHR) (human (endogenous in THLE-2 and human primary hepatocytes)) (UniProt P35869). In words: co-IP; endogenous proteins in human normal primary hepatocytes incubated with Leflunomide with or without Furafylline.
Experiment [3] has the same target. In words: co-IP; endogenous proteins in lysates of IL-6-pretreated THLE-2 cells (overexpressing CRP) incubated with Leflunomide alone (NC siRNA); protein A/G-agarose at 4 °C, western blot. (In general: In western blotting, separated proteins are transferred to a membrane and probed.)
For experiment [4] the target is unchanged. In words: co-IP; endogenous proteins in THLE-2 lysates (HEPES lysis buffer pH 7.2, 50 mM NaCl, 0.5% Triton X-100), primary antibodies and protein A/G-agarose at 4 °C, western blot; cells treated with DMSO, Leflunomide or A77 1726 at a series of concentrations, CRP siRNA, CRP overexpressing vector, IL-6 pretreatment, HIF1α siRNA, ACF (5.0 μM), hypoxia.

For the substance “AHR nuclear translocator (ARNT), rat (from UniProt P41739 1-800)”, the binding entry in experiment [1] is reported as “binds”.

Turning to “AHR nuclear translocator (ARNT) (from UniProt P27540 1-789)”, the values for the binding entry in experiment [2], in experiment [3] and in experiment [4] were “binds”, “binds weakly” and “binds”, respectively.
